Results: PMC10023711
No constants are given. Whether binding was seen depends on the method and setting. Binding seen in cells or lysates may run through a third protein. Some entries that bind do so weakly or less than the wild type.

Sequences of proteins named here, by UniProt entry; tags and fusion partners are left off.
UniProt P9WIA1: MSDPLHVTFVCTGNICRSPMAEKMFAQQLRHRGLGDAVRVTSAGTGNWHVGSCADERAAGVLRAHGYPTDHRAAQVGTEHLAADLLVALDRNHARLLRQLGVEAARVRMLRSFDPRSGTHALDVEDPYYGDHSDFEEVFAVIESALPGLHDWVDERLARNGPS
UniProt Q96LA8: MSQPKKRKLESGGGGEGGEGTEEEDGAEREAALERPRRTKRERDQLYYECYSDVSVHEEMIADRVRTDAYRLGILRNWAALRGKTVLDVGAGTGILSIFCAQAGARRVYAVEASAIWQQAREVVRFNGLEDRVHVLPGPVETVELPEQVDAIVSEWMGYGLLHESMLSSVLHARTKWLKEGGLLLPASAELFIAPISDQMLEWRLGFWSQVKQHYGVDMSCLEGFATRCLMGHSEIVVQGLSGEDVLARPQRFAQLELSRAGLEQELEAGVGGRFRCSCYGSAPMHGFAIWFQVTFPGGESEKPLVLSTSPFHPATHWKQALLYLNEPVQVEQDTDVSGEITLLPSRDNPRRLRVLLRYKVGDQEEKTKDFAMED

Target: GFP-PtpA (Mycobacterium tuberculosis) (UniProt P9WIA1)
Assay: co-IP

Question: For “Flag-PRMT6 (protein arginine methyltransferase 6) (from UniProt Q96LA8 1-375)”, which binding is on record?
Answer: Its binding is “binds”.
